HELM strings list residues between dots; [ac] is acetyl, [am] amide, other brackets name non-standard units.
Assay: general procedure: Fmoc solid-phase peptide synthesis; Fmoc-Thr(But)-Wang resin; HBTU/HOBt/DIEA; HOBT/DIC for Ce6
Details: whole synthesis, scale ~0.05 mmol

Substance: Ce6-[Tyr3]-octreotate-K3-[Tyr3]-octreotate
- isolated mass: 7 mg
- isolated yield: ~4% yield

Substance: PEPTIDE1{[Ce6].K.K.K.[dF].C.Y.[dW].K.T.C.T}$PEPTIDE1,PEPTIDE1,6:R3-11:R3$$$V2.0
- isolated mass: 15 mg
- isolated yield: ~13% yield
